The nature of the data set: general procedure: Boc solid-phase peptide synthesis; benzhydrylamine (BHA) resin, Boc-Gly-resin 1.19 mmol/g. The note with it: whole synthesis.

Strings that start with PEPTIDE1 are HELM notation: dots part the residues, brackets hold end groups and non-standard residues.

“PEPTIDE1{[Pmp].[D-Tyr(Et)].F.V.N.C.R.G.[am]}$PEPTIDE1,PEPTIDE1,1:R3-6:R3$$$V2.0” registered a crude yield of 40%.

The values are drawn from US4481193A (SmithKline Beckman Corporation, priority 1984, dated 1984).
